This is one part of the list. Single values are uncertain, as repeats are few or missing.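 The apoptosis fraction was the count of cleaved-PARP antibody-stained nuclei relative to all DNA-stained nuclei, imaged in 1,536-well plates. Screening doses were set so most cells survived, and baseline and induced cleaved-PARP levels vary greatly across cell lines.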
The compounds below were run on CBRC016 (line from a melanoma biopsy) (assay: cleaved PARP positive nuclei fraction relative to DMSO control; melanoma cells; higher = more apoptosis). Conditions: library dose: low library concentration; 72 h.

| Structure (SMILES) | cleaved PARP positive nuclei fraction |
| --- | --- |
| COCC[n+]1c2c(n(Cc3cnccn3)c1C)C(=O)c1ccccc1C2=O + CN(NC(=O)CC(=O)NN(C)C(=S)c1ccccc1)C(=S)c1ccccc1 [STA4783] (first compound 0.0004 µM, partner dose 0.006 µM) | 362% |
| Cn1nnc2c(C(N)=O)ncn2c1=O [temozolomide] + CC1(C)NC(=O)N(c2ccc([N+](=O)[O-])c(C(F)(F)F)c2)C1=O [nilutamide] (first compound 2 µM, partner dose 1 µM) | 91.3% |
| COCC[n+]1c2c(n(Cc3cnccn3)c1C)C(=O)c1ccccc1C2=O + O=C(CCCCCCC(=O)Nc1ccccc1)NO [vorinostat] (first compound 0.0004 µM, partner dose 0.08 µM) | 103% |

The compounds below were run on CBRC017 (line from a melanoma biopsy) in the same assay as above. Conditions: library dose: low library concentration; 72 h.

| Structure (SMILES) | cleaved PARP positive nuclei fraction |
| --- | --- |
| Cc1nc(Nc2ncc(C(=O)Nc3c(C)cccc3Cl)s2)cc(N2CCN(CCO)CC2)n1 [dasatanib] + O=C(CCCCCCC(=O)Nc1ccccc1)NO [vorinostat] (first compound 0.004 µM, partner dose 0.08 µM) | 103% |
| Nc1cccc2c1CN(C1CCC(=O)NC1=O)C2=O (stereo not given) [lenalidomide] + CC(C)(C)c1cnc(CSc2cnc(NC(=O)C3CCNCC3)s2)o1 [SNS-032] (first compound 1 µM, partner dose 0.01 µM) | 85.2% |
| OCc1c[nH]c2ccccc12 [Indole-3-carbinol] + Cc1ccc(NC(=O)c2cccc(N(C)C)c2)cc1NC(=O)c1ccc(O)cc1 [ZM336372] (first compound 0.8 µM, partner dose 2 µM) | 93.3% |
| COc1cc(Nc2ncc(F)c(Nc3ccc4c(n3)NC(=O)C(C)(C)O4)n2)cc(OC)c1OC [Tamatinib] + COc1cc2c(Oc3ccc4[nH]c(C)cc4c3F)ncnc2cc1OCCCN1CCCC1 [cediranib] (first compound 0.4 µM, partner dose 0.4 µM) | 109% |
| C#Cc1cccc(Nc2ncnc3cc(OCCOC)c(OCCOC)cc23)c1 [erlotinib] + CC(C)(C)c1cnc(CSc2cnc(NC(=O)C3CCNCC3)s2)o1 [SNS-032] (first compound 0.8 µM, partner dose 0.01 µM) | 74.5% |
| Clc1ccc(Nc2nnc(Cc3ccncc3)c3ccccc23)cc1 [vatalanib] + Cc1cc(N2CCOCC2)cc2[nH]c(-c3c(NC[C@@H](O)c4cccc(Cl)c4)cc[nH]c3=O)nc12 [BMS536924] (first compound 2 µM, partner dose 0.2 µM) | 85.6% |
| CC(=O)c1c(C)c2cnc(Nc3ccc(N4CCNCC4)cn3)nc2n(C2CCCC2)c1=O [palbociclib] + Cn1cncc1[C@@](N)(c1ccc(Cl)cc1)c1ccc2c(c1)c(-c1cccc(Cl)c1)cc(=O)n2C [tipifarnib] (first compound 0.04 µM, partner dose 0.01 µM) | 125% |
| C[C@]1(c2nc3c(C(N)=O)cccc3[nH]2)CCCN1 [Veliparib] + Cc1ccc(NC(=O)c2cccc(N(C)C)c2)cc1NC(=O)c1ccc(O)cc1 [ZM336372] (first compound 1.4 µM, partner dose 2 µM) | 293% |
| C=CCn1c(=O)c2cnc(Nc3ccc(N4CCN(C)CC4)cc3)nc2n1-c1cccc(C(C)(C)O)n1 + CN(C)S(=O)(=O)c1ccc2c(c1)/C(=C/c1cc3c([nH]1)CCCC3)C(=O)N2 [SU6656] (first compound 0.02 µM, partner dose 0.4 µM) | 88.5% |
| Clc1ccc(Nc2nnc(Cc3ccncc3)c3ccccc23)cc1 [vatalanib] + O=C(CCCCCCC(=O)Nc1ccccc1)NO [vorinostat] (first compound 2 µM, partner dose 0.08 µM) | 219% |
| OCc1c[nH]c2ccccc12 [Indole-3-carbinol] + COc1cc(Nc2ncc(F)c(Nc3ccc4c(n3)NC(=O)C(C)(C)O4)n2)cc(OC)c1OC [Tamatinib] (first compound 0.8 µM, partner dose 0.4 µM) | 157% |
| COCC[n+]1c2c(n(Cc3cnccn3)c1C)C(=O)c1ccccc1C2=O + C=CCn1c(=O)c2cnc(Nc3ccc(N4CCN(C)CC4)cc3)nc2n1-c1cccc(C(C)(C)O)n1 [MK1775] (first compound 0.0004 µM, partner dose 0.02 µM) | 110% |

Rewritten with tabs: entries from further up
Structure (SMILES)	cleaved PARP positive nuclei fraction
Nc1cccc2c1CN(C1CCC(=O)NC1=O)C2=O (stereo not given) [lenalidomide] + CC(C)(C)c1cnc(CSc2cnc(NC(=O)C3CCNCC3)s2)o1 [SNS-032] (first compound 1 µM, partner dose 0.01 µM)	85.2%
C#Cc1cccc(Nc2ncnc3cc(OCCOC)c(OCCOC)cc23)c1 [erlotinib] + CC(C)(C)c1cnc(CSc2cnc(NC(=O)C3CCNCC3)s2)o1 [SNS-032] (first compound 0.8 µM, partner dose 0.01 µM)	74.5%
Clc1ccc(Nc2nnc(Cc3ccncc3)c3ccccc23)cc1 [vatalanib] + O=C(CCCCCCC(=O)Nc1ccccc1)NO [vorinostat] (first compound 2 µM, partner dose 0.08 µM)	219%
COCC[n+]1c2c(n(Cc3cnccn3)c1C)C(=O)c1ccccc1C2=O + C=CCn1c(=O)c2cnc(Nc3ccc(N4CCN(C)CC4)cc3)nc2n1-c1cccc(C(C)(C)O)n1 [MK1775] (first compound 0.0004 µM, partner dose 0.02 µM)	110%

Source: the supplement of paper PMC4604168 (melanoma cell lines)
